These are yes or no findings as the source states them, for the method shown. Binding seen in cells or lysates may run through a third protein. Some binding calls cover weakened binding; strength is not graded here. For some of these results: Where a sequence is shown, tags or fusion partners need not be part of it.

The chains behind the UniProt entries cited, without tags or fusion partners.
UniProt Q92547: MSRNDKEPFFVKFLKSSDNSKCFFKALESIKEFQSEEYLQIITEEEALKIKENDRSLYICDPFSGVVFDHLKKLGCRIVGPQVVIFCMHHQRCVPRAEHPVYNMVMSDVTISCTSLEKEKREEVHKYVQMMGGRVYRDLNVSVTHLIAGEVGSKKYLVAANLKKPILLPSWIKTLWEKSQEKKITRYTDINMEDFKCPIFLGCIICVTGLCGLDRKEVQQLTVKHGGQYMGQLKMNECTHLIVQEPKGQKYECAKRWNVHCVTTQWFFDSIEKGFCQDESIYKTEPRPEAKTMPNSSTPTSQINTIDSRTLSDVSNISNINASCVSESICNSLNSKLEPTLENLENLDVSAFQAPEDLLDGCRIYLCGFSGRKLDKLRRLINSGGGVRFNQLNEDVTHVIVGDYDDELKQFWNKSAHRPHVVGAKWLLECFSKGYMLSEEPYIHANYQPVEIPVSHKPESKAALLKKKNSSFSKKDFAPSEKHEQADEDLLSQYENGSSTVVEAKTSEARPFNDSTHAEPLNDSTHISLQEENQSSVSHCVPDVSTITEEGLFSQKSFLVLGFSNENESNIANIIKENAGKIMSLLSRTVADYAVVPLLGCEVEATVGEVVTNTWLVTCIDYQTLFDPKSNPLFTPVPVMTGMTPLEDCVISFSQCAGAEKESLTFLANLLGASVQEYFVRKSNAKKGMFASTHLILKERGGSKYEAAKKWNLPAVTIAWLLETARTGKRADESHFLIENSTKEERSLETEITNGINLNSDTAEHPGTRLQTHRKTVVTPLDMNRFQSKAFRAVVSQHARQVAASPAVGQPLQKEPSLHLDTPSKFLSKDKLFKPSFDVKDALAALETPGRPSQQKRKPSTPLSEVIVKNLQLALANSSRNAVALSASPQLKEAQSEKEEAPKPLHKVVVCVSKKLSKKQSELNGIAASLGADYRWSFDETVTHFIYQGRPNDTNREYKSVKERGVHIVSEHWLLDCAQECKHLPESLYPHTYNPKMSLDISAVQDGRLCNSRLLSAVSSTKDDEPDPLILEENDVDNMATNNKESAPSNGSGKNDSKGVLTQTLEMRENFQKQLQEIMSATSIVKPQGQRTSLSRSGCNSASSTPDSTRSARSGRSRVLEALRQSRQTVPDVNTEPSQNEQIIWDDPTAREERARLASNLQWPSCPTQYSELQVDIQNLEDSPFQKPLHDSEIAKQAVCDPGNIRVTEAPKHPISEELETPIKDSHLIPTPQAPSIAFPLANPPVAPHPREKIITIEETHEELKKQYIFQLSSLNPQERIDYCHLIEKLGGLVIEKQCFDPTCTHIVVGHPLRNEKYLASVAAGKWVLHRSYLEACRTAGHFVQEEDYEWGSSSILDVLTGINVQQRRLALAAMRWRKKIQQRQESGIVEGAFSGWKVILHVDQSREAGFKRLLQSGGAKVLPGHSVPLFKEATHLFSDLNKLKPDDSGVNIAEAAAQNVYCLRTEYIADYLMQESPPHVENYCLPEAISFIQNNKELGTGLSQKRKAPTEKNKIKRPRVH

The target of assay [1] is TOPBP1 (human (endogenous in MDA-MB-231, BT-549, T-47D)) (UniProt Q92547). The experiment in a line: co-IP; endogenous proteins; cellular extracts in NETN buffer (50 mM Tris-HCl pH 8.0, 150 mM NaCl, 0.2% NP-40, 2 mM EDTA) of MDA-MB-231, BT-549 and T-47D cells, with or without CK2 inhibitor CX-4945 (10 uM, 4 h); antibody 12 h at 4 C, protein G magnetic beads, Western blotting. For orientation: A western blot detects proteins with antibodies after separation by electrophoresis.

Assay [2] shares this target. The experiment in a line: co-IP; FLAG-tagged HTATSF1 wildtype or point mutants expressed in breast cancer cells, endogenous TOPBP1; cellular extracts in NETN buffer (50 mM Tris-HCl pH 8.0, 150 mM NaCl, 0.2% NP-40, 2 mM EDTA), Western blotting.

B1: HIV Tat-specific factor 1 (HTATSF1), endogenous (protein, UniProt O43719 1-755)
chain: MSGTNLDGNDEFDEQLRMQELYGDGKDGDTQTDAGGEPDSLGQQPTDTPYEWDLDKKAWFPKITEDFIATYQANYGFSNDGASSSTANVEDVHARTAEEPPQEKAPEPTDARKKGEKRKAESGWFHVEEDRNTNVYVSGLPPDITVDEFIQLMSKFGIIMRDPQTEEFKVKLYKDNQGNLKGDGLCCYLKRESVELALKLLDEDEIRGYKLHVEVAKFQLKGEYDASKKKKKCKDYKKKLSMQQKQLDWRPERRAGPSRMRHERVVIIKNMFHPMDFEDDPLVLNEIREDLRVECSKFGQIRKLLLFDRHPDGVASVSFRDPEEADYCIQTLDGRWFGGRQITAQAWDGTTDYQVEETSREREERLRGWEAFLNAPEANRGLRRSDSVSASERAGPSRARHFSEHPSTSKMNAQETATGMAFEEPIDEKKFEKTEDGGEFEEGASENNAKESSPEKEAEEGCPEKESEEGCPKRGFEGSCSQKESEEGNPVRGSEEDSPKKESKKKTLKNDCEENGLAKESEDDLNKESEEEVGPTKESEEDDSEKESDEDCSEKQSEDGSEREFEENGLEKDLDEEGSEKELHENVLDKELEENDSENSEFEDDGSEKVLDEEGSEREFDEDSDEKEEEEDTYEKVFDDESDEKEDEEYADEKGLEAADKKAEEGDADEKLFEESDDKEDEDADGKEVEDADEKLFEDDDSNEKLFDEEEDSSEKLFDDSDERGTLGGFGSVEEGPLSTGSSFILSSDDDDDDI
modifications: phosphoserine at 748 (pS748, CK2-driven; detected in these cells)
In the case of B1, in assay [1], the binding result is “binds”.

B2: FLAG-tagged HTATSF1 wildtype (protein, UniProt O43719 1-755)
chain: MSGTNLDGNDEFDEQLRMQELYGDGKDGDTQTDAGGEPDSLGQQPTDTPYEWDLDKKAWFPKITEDFIATYQANYGFSNDGASSSTANVEDVHARTAEEPPQEKAPEPTDARKKGEKRKAESGWFHVEEDRNTNVYVSGLPPDITVDEFIQLMSKFGIIMRDPQTEEFKVKLYKDNQGNLKGDGLCCYLKRESVELALKLLDEDEIRGYKLHVEVAKFQLKGEYDASKKKKKCKDYKKKLSMQQKQLDWRPERRAGPSRMRHERVVIIKNMFHPMDFEDDPLVLNEIREDLRVECSKFGQIRKLLLFDRHPDGVASVSFRDPEEADYCIQTLDGRWFGGRQITAQAWDGTTDYQVEETSREREERLRGWEAFLNAPEANRGLRRSDSVSASERAGPSRARHFSEHPSTSKMNAQETATGMAFEEPIDEKKFEKTEDGGEFEEGASENNAKESSPEKEAEEGCPEKESEEGCPKRGFEGSCSQKESEEGNPVRGSEEDSPKKESKKKTLKNDCEENGLAKESEDDLNKESEEEVGPTKESEEDDSEKESDEDCSEKQSEDGSEREFEENGLEKDLDEEGSEKELHENVLDKELEENDSENSEFEDDGSEKVLDEEGSEREFDEDSDEKEEEEDTYEKVFDDESDEKEDEEYADEKGLEAADKKAEEGDADEKLFEESDDKEDEDADGKEVEDADEKLFEDDDSNEKLFDEEEDSSEKLFDDSDERGTLGGFGSVEEGPLSTGSSFILSSDDDDDDI
For B2, the binding entry in assay [2] is “binds”.

B3: FLAG-tagged HTATSF1/S748D (protein, UniProt O43719 1-755)
chain: MSGTNLDGNDEFDEQLRMQELYGDGKDGDTQTDAGGEPDSLGQQPTDTPYEWDLDKKAWFPKITEDFIATYQANYGFSNDGASSSTANVEDVHARTAEEPPQEKAPEPTDARKKGEKRKAESGWFHVEEDRNTNVYVSGLPPDITVDEFIQLMSKFGIIMRDPQTEEFKVKLYKDNQGNLKGDGLCCYLKRESVELALKLLDEDEIRGYKLHVEVAKFQLKGEYDASKKKKKCKDYKKKLSMQQKQLDWRPERRAGPSRMRHERVVIIKNMFHPMDFEDDPLVLNEIREDLRVECSKFGQIRKLLLFDRHPDGVASVSFRDPEEADYCIQTLDGRWFGGRQITAQAWDGTTDYQVEETSREREERLRGWEAFLNAPEANRGLRRSDSVSASERAGPSRARHFSEHPSTSKMNAQETATGMAFEEPIDEKKFEKTEDGGEFEEGASENNAKESSPEKEAEEGCPEKESEEGCPKRGFEGSCSQKESEEGNPVRGSEEDSPKKESKKKTLKNDCEENGLAKESEDDLNKESEEEVGPTKESEEDDSEKESDEDCSEKQSEDGSEREFEENGLEKDLDEEGSEKELHENVLDKELEENDSENSEFEDDGSEKVLDEEGSEREFDEDSDEKEEEEDTYEKVFDDESDEKEDEEYADEKGLEAADKKAEEGDADEKLFEESDDKEDEDADGKEVEDADEKLFEDDDSNEKLFDEEEDSSEKLFDDSDERGTLGGFGSVEEGPLSTGSSFILSDDDDDDDI
With B3, the binding result in assay [2] is “binds”.

B4: FLAG-tagged HTATSF1/S748A (protein, UniProt O43719 1-755)
chain: MSGTNLDGNDEFDEQLRMQELYGDGKDGDTQTDAGGEPDSLGQQPTDTPYEWDLDKKAWFPKITEDFIATYQANYGFSNDGASSSTANVEDVHARTAEEPPQEKAPEPTDARKKGEKRKAESGWFHVEEDRNTNVYVSGLPPDITVDEFIQLMSKFGIIMRDPQTEEFKVKLYKDNQGNLKGDGLCCYLKRESVELALKLLDEDEIRGYKLHVEVAKFQLKGEYDASKKKKKCKDYKKKLSMQQKQLDWRPERRAGPSRMRHERVVIIKNMFHPMDFEDDPLVLNEIREDLRVECSKFGQIRKLLLFDRHPDGVASVSFRDPEEADYCIQTLDGRWFGGRQITAQAWDGTTDYQVEETSREREERLRGWEAFLNAPEANRGLRRSDSVSASERAGPSRARHFSEHPSTSKMNAQETATGMAFEEPIDEKKFEKTEDGGEFEEGASENNAKESSPEKEAEEGCPEKESEEGCPKRGFEGSCSQKESEEGNPVRGSEEDSPKKESKKKTLKNDCEENGLAKESEDDLNKESEEEVGPTKESEEDDSEKESDEDCSEKQSEDGSEREFEENGLEKDLDEEGSEKELHENVLDKELEENDSENSEFEDDGSEKVLDEEGSEREFDEDSDEKEEEEDTYEKVFDDESDEKEDEEYADEKGLEAADKKAEEGDADEKLFEESDDKEDEDADGKEVEDADEKLFEDDDSNEKLFDEEEDSSEKLFDDSDERGTLGGFGSVEEGPLSTGSSFILSADDDDDDI
As to B4, the binding result in assay [2] is recorded as “no binding”.

For the origin of these results see publication PMC11208909.
